The target of test [1] is T1, SEPT12-FLAG (in 293T cells) (human) (UniProt Q8IYM1).
T1 sequence: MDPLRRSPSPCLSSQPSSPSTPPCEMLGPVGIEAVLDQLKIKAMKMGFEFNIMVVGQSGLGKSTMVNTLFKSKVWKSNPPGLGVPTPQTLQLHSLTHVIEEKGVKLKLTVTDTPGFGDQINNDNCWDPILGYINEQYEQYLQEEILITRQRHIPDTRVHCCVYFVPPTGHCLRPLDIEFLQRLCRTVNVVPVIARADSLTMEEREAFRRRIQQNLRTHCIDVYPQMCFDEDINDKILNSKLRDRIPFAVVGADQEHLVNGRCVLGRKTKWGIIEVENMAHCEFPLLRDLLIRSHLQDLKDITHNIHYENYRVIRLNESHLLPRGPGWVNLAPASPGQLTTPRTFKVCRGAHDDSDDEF
The test can be described thus: co-IP; same co-IP in 293T cells (Figure S1).

Another test addresses T2, SEPT12-FLAG (human) (UniProt Q8IYM1).
T2 sequence: T1 sequence
The test is described as follows: co-IP; lysates of NTERA-2 d.D1 cells transfected with pFLAG-SEPTIN12 (4 mg protein in 1 mL, pre-cleared with protein A/G beads); IP overnight with anti-FLAG, anti-α-tubulin, anti-β-tubulin or control IgG; washed twice with 1x PBS; Western blot.

For another test, the target named is T3, SEPT12-GFP (human) (UniProt Q8IYM1).
T3 sequence: T1 sequence
The test can be described thus: co-IP; testicular lysates from SEPTIN12-transgenic mice; IP with anti-GFP antibody, IgG as control; blot with anti-GFP, anti-α-tubulin and anti-β-tubulin.

In test [2] the target is β-tubulin (human (endogenous in NTERA-2 d.D1)). The test is described as follows: co-IP; lysates of NTERA-2 d.D1 cells transfected with pFLAG-SEPTIN12 (4 mg protein in 1 mL, pre-cleared with protein A/G beads); IP overnight with anti-FLAG, anti-α-tubulin, anti-β-tubulin or control IgG; washed twice with 1x PBS; Western blot.
Test [3] has as its target α-tubulin (human (endogenous in NTERA-2 d.D1)). The description is as above.
Test [4] deals with α-tubulin (293T cells) (human (endogenous in 293T)). The test can be described thus: co-IP; same co-IP in 293T cells (Figure S1).
Test [5] deals with β-tubulin (293T cells) (human (endogenous in 293T)). The test can be described thus: co-IP; same co-IP in 293T cells (Figure S1).

These are yes or no findings as the source states them, for the method shown. In cells and extracts the contact can be indirect. Binding calls can cover weak binding; strength is not graded here. Sequences can lack the tags named with a protein.

Consider “α-tubulin (293T cells) (human (endogenous in 293T))”, for which the binding result in test [1] is given as “binds”.
For the molecule “α-tubulin (human (endogenous in NTERA-2 d.D1))”, the binding result with SEPT12-FLAG (human) is “binds”.
Consider α-tubulin (mouse testis), for which the binding entry with SEPT12-GFP (human) is listed as “binds”.
In the case of “β-tubulin (293T cells) (human (endogenous in 293T))”, the binding entry in test [1] was “binds”.
For the molecule “β-tubulin (human (endogenous in NTERA-2 d.D1))”, the binding entry with SEPT12-FLAG (human) is on record as “binds”.
With β-tubulin (mouse testis), the binding entry with SEPT12-GFP (human) is on record as “binds”.

B1: SEPT12-FLAG (protein, UniProt Q8IYM1 1-358)
chain: T1 sequence
For B1, the binding entry in test [2] and in test [3] was “binds” each time.

B2: SEPT12-FLAG (in 293T cells) (protein, UniProt Q8IYM1 1-358)
chain: T1 sequence
Consider B2, for which the binding entry in test [4] and in test [5] was “binds” each time.

The values are drawn from PMC3856054.
